From PubChem BioAssay AID504834 (National Center for Advancing Translational Sciences (NCATS), 2011)
About 22,000 (6.9%) of roughly 320,000 compounds were called active. Inconclusive results, whose numbers are uncertain, are shown with a selection of clear calls. The call rests on the fitted dose curve; in most records, active means well fitted inhibition curve with a large enough effect; inconclusive means small, poorly fitted or top-dose-only effect, or another doubt; inactive means no such curve, though single readings can be large or run the other way. A potency beside an inconclusive call is a rough fit, not a confirmed value.

Experiment: Primary qHTS for delayed death inhibitors of the malarial parasite plastid, 96 hour incubation
Details: P. falciparum luciferase reporter growth; series mostly up to 28.7 µM
In short: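 Two-generation exposure (96 h) targets delayed-death phenotype. Reporter parasites carrying integrated firefly luciferase, in red cells at 2% hematocrit and 0.05% parasitemia final, kept at 37 C, 5% CO2; luminescence loss indicates inhibition.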
Potency means the concentration at half of the fitted maximal effect.

| SMILES | Potency |
| --- | --- |
| N#Cc1cc(-c2ccccc2)nc(N2CCNCC2)n1 | inconclusive: 18.5 µM [inhibitor, single point] |
| CN(C)C(=O)c1nc2ccc(Cl)cn2c1CN1CCCC(OCc2ccccc2)C1 (stereo unspecified) | inconclusive: 10.4 µM [inhibitor, single point] |
| COc1ccc(NS(=O)(=O)c2cccc(C(=O)NCCCN3CCCC3=O)c2)cc1 | inconclusive: 7.38 µM [inhibitor, partial curve] |
| CCc1cc2c(-c3ccccc3)cc(=O)oc2cc1OCC(C)=O | active: 13.1 µM |
| CCOC(=O)N1CCN(C(=O)CSc2nnc(-c3ccc(C(C)(C)C)cc3)o2)CC1 | inactive |
| S=C(NCc1cccs1)Nc1cccc(Cl)c1 | inconclusive: 18.5 µM [inhibitor, partial curve, poor fit] |
| COc1ccc(OC)c(NC(=O)c2cc(-c3cc(C)c(C)cc3O)n[nH]2)c1 | active: 1.85 µM |
| Cc1ccc(OCc2cc(C(=O)N3CCC(c4ccccc4Cl)C3)no2)cc1C (stereo unspecified) | inconclusive: 10.4 µM [inhibitor, single point] |
| N#Cc1ccccc1S(=O)(=O)Nc1ccc2c(c1)OCCO2 | inconclusive: 10.4 µM [inhibitor, single point] |
| Cc1ccc(NC(=O)c2cc(=O)c3ccccc3o2)cc1S(=O)(=O)N1CCOCC1 | active: 4.65 µM |
| CC(C)CN(Cc1cc(=O)oc2cc(-c3ccccc3)c(O)cc12)CC(C)C | inconclusive: 0.165 µM [inhibitor, full curve, poor fit] |
| CN1CCN(S(=O)(=O)c2ccc3c(c2)CC(=O)N3C)CC1 | inconclusive: 20.8 µM [inhibitor, partial curve, poor fit] |
| CCc1noc(C)c1C(=O)NNC(=O)c1nn(CC)c(=O)c2ccccc12 | inconclusive: 10.4 µM [inhibitor, single point] |
| O=C(Nc1ccc2c(c1)S(=O)(=O)N=C1CCCCCN12)c1ccccc1Cl | inconclusive: 10.4 µM [inhibitor, single point] |
| N=c1c(S(=O)(=O)c2ccccc2)cc2c(=O)n3ccccc3nc2n1Cc1cccnc1 | inconclusive: 13.1 µM [inhibitor, partial curve] |
| O=S1(=O)CCO[C@H]2Cc3ccccc3[C@H]2N1Cc1cccc(Cl)c1 | inconclusive: 0.329 µM [inhibitor, full curve, poor fit] |
| COc1cccc(NC(=O)Cn2c(=O)n(-c3cc(OC)c(OC)c(OC)c3)c(=O)c3ccccc32)c1 | inconclusive: 18.5 µM [inhibitor, single point] |
| Cc1c(N=C2N=C(NC(=O)NC(C)(C)C)c3ccccc32)c(=O)n(-c2ccccc2)n1C | inconclusive: 2.94 µM [inhibitor, full curve] |
| Cc1cccc(N2C(=O)CC(Sc3nc(-c4ccccc4)c4cc(Cl)ccc4n3)C2=O)c1 (stereo unspecified) | inactive |
| Cc1cc(NCCCn2ccnc2)n2c(nc3ccccc32)c1C#N | inconclusive: 0.928 µM [inhibitor, partial curve, poor fit] |
| O=C(c1ccc(CNS(=O)(=O)c2ccc(Br)cc2)cc1)N1CCCCC1 | inconclusive: 2.08 µM [inhibitor, full curve] |
| Nc1c(C(=O)Nc2ccc3c(c2)OCCO3)nnn1Cc1ccc(F)cc1 | inactive |

| SMILES | Potency |
| --- | --- |
| O=C(c1ccco1)N1CCc2[nH]nc(-c3ccccc3)c2C1 | inconclusive: 18.5 µM [inhibitor, single point] |
| O=C(CC1SC(N2CCCC2)=NC1=O)Nc1ccc(C(=O)Nc2ccccc2)cc1 (stereo unspecified) | inconclusive: 13.1 µM [inhibitor, partial curve] |
| CCn1c(=NC(=O)CS(=O)(=O)c2ccc(C)cc2)sc2cccc(OC)c21 | inconclusive: 9.28 µM [inhibitor, single point] |
| CCc1nc(SCC(=O)N2CCN(c3ccccc3)CC2)c2c(=O)n(C)c(=O)n(C)c2n1 | inactive |
| Cc1cc[n+](CC(=O)c2ccccc2)c2ccccc12 | inactive |
| O=[N+]([O-])c1ccc(N2CCCCC2)nc1 | inconclusive: 3.29 µM [inhibitor, partial curve, poor fit] |
| C#CCOC(=O)Nc1cc(C)n(-c2ccccc2)n1 | inactive |
| Cc1ccc(Nc2nc3c(c(=O)[nH]2)CCCC3)cc1 | inconclusive: 11.7 µM [inhibitor, partial curve] |
| COc1ccc(CSC(=N)N)cc1[N+](=O)[O-] | inactive |
| CC(=O)n1nc(-c2cccnc2)nc1NCc1cccs1 | inconclusive: 4.15 µM [inhibitor, partial curve, poor fit] |
| C=CCn1c(C)cc(C(=O)COc2ccc(S(=O)(=O)N3CCCC3)cc2[N+](=O)[O-])c1C | inconclusive: 11.7 µM [inhibitor, single point] |
| COc1ccc(NC(=O)CSc2nnc3ccc(-c4ccncc4)nn23)cc1OC | inconclusive: 5.86 µM [inhibitor, partial curve, poor fit] |
| CCN(CC)S(=O)(=O)c1ccc(OC)c(NC(=O)c2ccc(=O)[nH]c2)c1 | inconclusive: 4.65 µM [inhibitor, partial curve] |
| NC(=O)c1ccsc1NC(=O)COC(=O)c1c(F)cccc1Cl | inactive |
| Cc1ccc(CSCC(=O)NCc2ccco2)cc1 | inconclusive: 4.15 µM [inhibitor, partial curve, poor fit] |
| CCCN(C(=O)c1cccs1)c1c(N)n(Cc2ccccc2)c(=O)[nH]c1=O | inconclusive: 18.5 µM [inhibitor, single point] |
| CCCOc1ccc(N2C(=O)CC(N3CCN(c4ccc([N+](=O)[O-])cc4)CC3)C2=O)cc1 (stereo unspecified) | inconclusive: 18.5 µM [inhibitor, single point] |
| COc1ccc2c(c1OC)C(=O)N1N=C(c3ccc(-c4ccccc4)cc3)CC21 (stereo unspecified) | inconclusive: 4.15 µM [inhibitor, partial curve] |
| C/C(=N\NC(=O)C1CC1)c1cccnc1 | inactive |
| COc1ccccc1NC(=O)/C=C\C(=O)O | inconclusive: 18.5 µM [inhibitor, single point] |
| O=[N+]([O-])c1ccc(Sc2nnnn2-c2ccccc2)c(Cl)c1 | inconclusive: 16.5 µM [inhibitor, partial curve, poor fit] |
| CCOC(=O)C(NCc1ccccc1OC)(NC(=O)c1ccccc1)C(F)(F)F (stereo unspecified) | inactive |

Among those listed so far, these have an aryl thioether with sulfur outside any ring:

| SMILES | Potency |
| --- | --- |
| CCOC(=O)N1CCN(C(=O)CSc2nnc(-c3ccc(C(C)(C)C)cc3)o2)CC1 | inactive |
| Cc1cccc(N2C(=O)CC(Sc3nc(-c4ccccc4)c4cc(Cl)ccc4n3)C2=O)c1 (stereo unspecified) | inactive |
| CCc1nc(SCC(=O)N2CCN(c3ccccc3)CC2)c2c(=O)n(C)c(=O)n(C)c2n1 | inactive |
| COc1ccc(NC(=O)CSc2nnc3ccc(-c4ccncc4)nn23)cc1OC | inconclusive: 5.86 µM [inhibitor, partial curve, poor fit] |
| O=[N+]([O-])c1ccc(Sc2nnnn2-c2ccccc2)c(Cl)c1 | inconclusive: 16.5 µM [inhibitor, partial curve, poor fit] |

Next part.

| SMILES | Potency |
| --- | --- |
| O=C(CC12CC3CC(CC(C3)C1)C2)Nc1c(F)cccc1F | inactive |
| COC(=O)C1=C(c2ccc(-c3ccccc3)c(F)c2)C[C@@H]2CC[C@H]1N2C(=O)N1CCc2cc(OC)c(OC)cc2C1 | inconclusive: 3.7 µM [inhibitor, partial curve, poor fit] |
| C/C(=N\Nc1nc2ccccc2s1)c1ccc(Br)s1 | inconclusive: 18.5 µM [inhibitor, single point] |
| CC(C)OCCCNC(=S)N1CCC(C(=O)c2ccc3c(c2)OCCO3)CC1 | inconclusive: 2.94 µM [inhibitor, partial curve, poor fit] |
| CN(C)c1ccc(P(=O)(OCc2ccccc2)C(O)c2ccc(Br)cc2)cc1 (stereo unspecified) | inconclusive: 16.5 µM [inhibitor, partial curve, poor fit] |
| Cc1c(C(=O)NC2CC(=O)N(c3ccc4c(c3)OCCO4)C2)cccc1[N+](=O)[O-] (stereo unspecified) | inactive |
| CCC(c1nnnn1CCc1ccccc1)N(Cc1ccco1)Cc1cc2cc(C)cc(C)c2[nH]c1=O (stereo unspecified) | inactive |
| Cc1occc1-c1nnc(SCc2cc(=O)n3cc(Br)ccc3n2)n1C | inconclusive: 10.4 µM [inhibitor, single point] |
| Cc1[nH]c2ccc(F)cc2c1CCN(Cc1cccnc1)C(=S)Nc1ccccc1 | inconclusive: 9.28 µM [inhibitor, single point] |
| COc1ccc(CN2C=C3C(=O)C(C)(OC(=O)C4CCCC4)C(=O)C=C3C=C2c2ccsc2)cc1 (stereo unspecified) | inconclusive: 10.4 µM [inhibitor, single point] |
| CCCCn1c(N)c(N(Cc2ccccc2OC)C(=O)c2ccc(N3CCCC3=O)cc2)c(=O)[nH]c1=O | inconclusive: 4.65 µM [inhibitor, partial curve] |
| CN1CCN(C2=C(NS(=O)(=O)c3cccs3)C(=O)c3ccccc3C2=O)CC1 | inconclusive: 4.15 µM [inhibitor, partial curve] |
| CC1CCCCN1CCCNC(=O)C1CCN(c2nc3ccccc3o2)CC1 (stereo unspecified) | inactive |
| CCCN(CCC)C(=O)C[n+]1cccc(/C=N/O)c1 | inconclusive: 0.522 µM [inhibitor, single point] |
| COc1ccc(Br)cc1C(=O)Nc1ccc(C(=O)NCC(C)C)cc1 | inconclusive: 0.657 µM [inhibitor, partial curve, poor fit] |
| CCCCn1c(O)c(C(C)=NCCN2CCCCC2)c(=O)[nH]c1=O | inconclusive: 18.5 µM [inhibitor, single point] |
| CC(=O)c1ccc(OCc2cccc(C(F)(F)F)c2)cc1O | inconclusive: 18.5 µM [inhibitor, single point] |
| N/C(=N\OC(=O)c1cccs1)c1cccc(Br)c1 | inactive |
| C/C(=N\Nc1cc(N2CCOCC2)ncn1)c1ccccc1 | inconclusive: 18.5 µM [inhibitor, single point] |
| Cn1c(=S)[nH]c(=O)c2ncc(=O)[nH]c21 | inactive |
| CC(NCC(O)COc1ccc(Br)cc1)c1ccccc1 (stereo unspecified) | inconclusive: 10.4 µM [inhibitor, partial curve, poor fit] |
| COc1ccc(N2CCN(C(=O)c3cccc(Cn4cc(Cl)cn4)c3)CC2)cc1 | inconclusive: 18.5 µM [inhibitor, single point] |
